From patent US20240197716A1, “TREATMENTS FOR CUSHING'S SYNDROME THAT DO NOT SIGNIFICANTLY AFFECT CARDIAC RHYTHMS” (Corcept Therapeutics Incorporated, priority 2022, published 2024)
The name of at least one read-out is uncertain.

Test system: healthy volunteers
Experiment: First-in-Human SAD/MAD study (NCT03508635), ECG / QTcF
Type: in vivo
Conditions: up to 500 mg QD, FIGS. 3A-3E
Experimental: A phase 1, 3-part, single-center, First-in-Human study (NCT03508635) included 103 healthy volunteers who received single or multiple ascending doses (SAD/MAD) of relacorilant (up to 500 mg QD) for up to 14 days; 24 received placebo.
In all studies, ECG data were collected and the heart rate-corrected QT interval using Fridericia's formula (QTcF) was calculated. Participants with a family history of or risk factors for torsades de pointes or with a prolonged QT interval at screening were not eligible to participate. Exposure-response analysis of the effect of relacorilant on the heart-rate corrected QT interval (QTc) was conducted using a linear model with an intercept.
In a 3-part, single-center, First-in-Human study (NCT03508635, “phase 1 study”), 103 healthy volunteers received single or multiple ascending doses of relacorilant (up to 500 mg QD) for up to 14 days; 24 received placebo. In a randomized, partial double-blind, crossover Thorough QT study (NCT04795479, “TQT study”), the effect of multiple therapeutic (400 mg QD, n=25) and supra-therapeutic (800 mg QD, n=28) doses of relacorilant on cardiac repolarization was studied in healthy volunteers. […] In all studies, ECG data were collected, and the heart rate-corrected QT interval using Fridericia's formula (QTcF) was assessed. […]

Structure (SMILES): Cn1cc(S(=O)(=O)N2CCC3=Cc4c(cnn4-c4ccc(F)cc4)C[C@]3(C(=O)c3cc(C(F)(F)F)ccn3)C2)cn1 [relacorilant, ((R)-(1-(4-fluorophenyl)-6-((1-methyl-1H-pyrazol-4-yl)sulfonyl)-4,4a,5,6,7,8-hexahydro-1H-pyrazolo[3,4-g]isoquinolin-4a-yl)(4-(trifluoromethyl)pyridine-2-yl)methanone)]
- change in QTc at 2 hours (time of Cmax): slight decrease in QTc
